Measurements published in paper PMC11304251.
Results are given in words; binding and its absence hold for the method and conditions named. Binding seen in cells or lysates may run through a third protein. These calls come from enrichment with a bait or labelling near it, and not all partners need be listed.

The chains behind the UniProt entries cited, without tags or fusion partners.
UniProt Q99J83: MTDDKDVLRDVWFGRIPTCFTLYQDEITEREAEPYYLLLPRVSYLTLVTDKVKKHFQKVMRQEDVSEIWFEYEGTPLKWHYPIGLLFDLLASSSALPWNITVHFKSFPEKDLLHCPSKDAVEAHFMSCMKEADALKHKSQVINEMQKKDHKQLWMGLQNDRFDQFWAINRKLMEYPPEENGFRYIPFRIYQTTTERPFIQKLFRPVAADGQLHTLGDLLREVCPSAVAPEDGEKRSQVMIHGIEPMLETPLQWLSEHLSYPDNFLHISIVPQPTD
UniProt Q99K82: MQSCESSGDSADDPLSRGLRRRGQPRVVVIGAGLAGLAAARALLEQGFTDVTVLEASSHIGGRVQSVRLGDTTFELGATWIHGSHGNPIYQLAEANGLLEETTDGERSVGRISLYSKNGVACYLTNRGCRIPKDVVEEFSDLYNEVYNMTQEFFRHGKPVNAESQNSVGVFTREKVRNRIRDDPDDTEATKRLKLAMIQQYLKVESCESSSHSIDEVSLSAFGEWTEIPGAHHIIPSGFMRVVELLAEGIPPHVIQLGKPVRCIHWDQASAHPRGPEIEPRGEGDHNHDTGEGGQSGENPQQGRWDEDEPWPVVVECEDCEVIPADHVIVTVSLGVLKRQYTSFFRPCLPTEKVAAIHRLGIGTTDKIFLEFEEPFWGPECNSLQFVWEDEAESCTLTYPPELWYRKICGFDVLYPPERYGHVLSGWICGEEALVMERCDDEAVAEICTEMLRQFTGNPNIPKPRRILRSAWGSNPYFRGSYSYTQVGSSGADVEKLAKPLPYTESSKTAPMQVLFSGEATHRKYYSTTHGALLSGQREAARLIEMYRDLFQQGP

Biological target: ATG5, wild type, overexpressed (UniProt Q99J83)
Assay: affinity purification with mass spectrometry; mTECs transfected with ATG5 overexpression plasmid; lysate immunoprecipitated with anti-ATG5 antibody; SDS-PAGE, trypsin digest of gel slices, LC-MS/MS

binding: binds
Substance: spermine oxidase (SMOX) (from UniProt Q99K82 1-555) (enzyme)
